The source of these data is the supplement of paper PMC11006884.

Protein sequences, listed by entry. Tags and fused reporters are not part of them. Lines headed by an entry give the natural chain unless they say otherwise; changes in a name come on top.
UniProt Q8N1G2: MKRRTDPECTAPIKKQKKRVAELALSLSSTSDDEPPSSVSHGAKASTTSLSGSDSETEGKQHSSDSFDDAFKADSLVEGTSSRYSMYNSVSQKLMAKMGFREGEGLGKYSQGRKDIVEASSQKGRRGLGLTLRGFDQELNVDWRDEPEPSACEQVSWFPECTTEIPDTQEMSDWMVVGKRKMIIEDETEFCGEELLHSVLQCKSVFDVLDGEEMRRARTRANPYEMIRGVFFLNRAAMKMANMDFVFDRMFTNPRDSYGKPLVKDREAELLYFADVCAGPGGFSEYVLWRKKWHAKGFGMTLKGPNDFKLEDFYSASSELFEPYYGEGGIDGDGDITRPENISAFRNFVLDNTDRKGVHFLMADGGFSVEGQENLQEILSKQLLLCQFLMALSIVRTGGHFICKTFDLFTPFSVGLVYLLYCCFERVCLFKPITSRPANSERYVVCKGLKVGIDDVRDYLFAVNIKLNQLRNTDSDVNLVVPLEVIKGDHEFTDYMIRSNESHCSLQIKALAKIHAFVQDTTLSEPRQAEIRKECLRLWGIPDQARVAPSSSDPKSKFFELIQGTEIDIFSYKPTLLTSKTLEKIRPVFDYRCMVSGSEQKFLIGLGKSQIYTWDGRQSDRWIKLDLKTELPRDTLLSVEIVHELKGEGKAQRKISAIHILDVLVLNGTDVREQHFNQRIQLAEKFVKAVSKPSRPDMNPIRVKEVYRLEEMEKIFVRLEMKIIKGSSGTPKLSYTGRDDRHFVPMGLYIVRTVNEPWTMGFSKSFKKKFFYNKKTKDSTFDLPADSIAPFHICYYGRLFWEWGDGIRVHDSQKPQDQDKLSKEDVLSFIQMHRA
UniProt Q8N163, whole entry, looked up: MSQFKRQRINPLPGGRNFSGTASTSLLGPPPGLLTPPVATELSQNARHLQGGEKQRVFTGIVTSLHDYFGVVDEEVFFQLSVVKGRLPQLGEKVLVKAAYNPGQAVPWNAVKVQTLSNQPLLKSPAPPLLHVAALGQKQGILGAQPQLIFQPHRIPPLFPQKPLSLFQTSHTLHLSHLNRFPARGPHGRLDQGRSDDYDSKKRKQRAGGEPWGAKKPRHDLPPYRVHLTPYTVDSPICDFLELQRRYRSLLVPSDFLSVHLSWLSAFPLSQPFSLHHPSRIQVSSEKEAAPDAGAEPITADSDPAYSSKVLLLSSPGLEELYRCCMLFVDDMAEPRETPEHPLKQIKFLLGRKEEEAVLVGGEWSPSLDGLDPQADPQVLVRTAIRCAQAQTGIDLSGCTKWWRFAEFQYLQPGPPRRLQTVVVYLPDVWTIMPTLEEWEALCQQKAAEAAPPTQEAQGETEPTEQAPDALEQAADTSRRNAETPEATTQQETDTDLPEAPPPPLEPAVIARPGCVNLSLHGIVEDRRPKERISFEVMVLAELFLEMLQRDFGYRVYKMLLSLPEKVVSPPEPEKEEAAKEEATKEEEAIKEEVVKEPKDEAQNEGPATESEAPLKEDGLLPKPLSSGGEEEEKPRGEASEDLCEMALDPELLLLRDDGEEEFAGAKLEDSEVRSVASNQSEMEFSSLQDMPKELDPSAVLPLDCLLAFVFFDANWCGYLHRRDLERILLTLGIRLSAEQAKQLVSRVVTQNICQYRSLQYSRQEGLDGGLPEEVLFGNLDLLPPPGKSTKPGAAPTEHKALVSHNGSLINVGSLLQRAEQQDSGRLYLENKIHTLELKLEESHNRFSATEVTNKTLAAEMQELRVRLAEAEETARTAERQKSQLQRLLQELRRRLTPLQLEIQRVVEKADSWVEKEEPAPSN
UniProt Q8WYP5: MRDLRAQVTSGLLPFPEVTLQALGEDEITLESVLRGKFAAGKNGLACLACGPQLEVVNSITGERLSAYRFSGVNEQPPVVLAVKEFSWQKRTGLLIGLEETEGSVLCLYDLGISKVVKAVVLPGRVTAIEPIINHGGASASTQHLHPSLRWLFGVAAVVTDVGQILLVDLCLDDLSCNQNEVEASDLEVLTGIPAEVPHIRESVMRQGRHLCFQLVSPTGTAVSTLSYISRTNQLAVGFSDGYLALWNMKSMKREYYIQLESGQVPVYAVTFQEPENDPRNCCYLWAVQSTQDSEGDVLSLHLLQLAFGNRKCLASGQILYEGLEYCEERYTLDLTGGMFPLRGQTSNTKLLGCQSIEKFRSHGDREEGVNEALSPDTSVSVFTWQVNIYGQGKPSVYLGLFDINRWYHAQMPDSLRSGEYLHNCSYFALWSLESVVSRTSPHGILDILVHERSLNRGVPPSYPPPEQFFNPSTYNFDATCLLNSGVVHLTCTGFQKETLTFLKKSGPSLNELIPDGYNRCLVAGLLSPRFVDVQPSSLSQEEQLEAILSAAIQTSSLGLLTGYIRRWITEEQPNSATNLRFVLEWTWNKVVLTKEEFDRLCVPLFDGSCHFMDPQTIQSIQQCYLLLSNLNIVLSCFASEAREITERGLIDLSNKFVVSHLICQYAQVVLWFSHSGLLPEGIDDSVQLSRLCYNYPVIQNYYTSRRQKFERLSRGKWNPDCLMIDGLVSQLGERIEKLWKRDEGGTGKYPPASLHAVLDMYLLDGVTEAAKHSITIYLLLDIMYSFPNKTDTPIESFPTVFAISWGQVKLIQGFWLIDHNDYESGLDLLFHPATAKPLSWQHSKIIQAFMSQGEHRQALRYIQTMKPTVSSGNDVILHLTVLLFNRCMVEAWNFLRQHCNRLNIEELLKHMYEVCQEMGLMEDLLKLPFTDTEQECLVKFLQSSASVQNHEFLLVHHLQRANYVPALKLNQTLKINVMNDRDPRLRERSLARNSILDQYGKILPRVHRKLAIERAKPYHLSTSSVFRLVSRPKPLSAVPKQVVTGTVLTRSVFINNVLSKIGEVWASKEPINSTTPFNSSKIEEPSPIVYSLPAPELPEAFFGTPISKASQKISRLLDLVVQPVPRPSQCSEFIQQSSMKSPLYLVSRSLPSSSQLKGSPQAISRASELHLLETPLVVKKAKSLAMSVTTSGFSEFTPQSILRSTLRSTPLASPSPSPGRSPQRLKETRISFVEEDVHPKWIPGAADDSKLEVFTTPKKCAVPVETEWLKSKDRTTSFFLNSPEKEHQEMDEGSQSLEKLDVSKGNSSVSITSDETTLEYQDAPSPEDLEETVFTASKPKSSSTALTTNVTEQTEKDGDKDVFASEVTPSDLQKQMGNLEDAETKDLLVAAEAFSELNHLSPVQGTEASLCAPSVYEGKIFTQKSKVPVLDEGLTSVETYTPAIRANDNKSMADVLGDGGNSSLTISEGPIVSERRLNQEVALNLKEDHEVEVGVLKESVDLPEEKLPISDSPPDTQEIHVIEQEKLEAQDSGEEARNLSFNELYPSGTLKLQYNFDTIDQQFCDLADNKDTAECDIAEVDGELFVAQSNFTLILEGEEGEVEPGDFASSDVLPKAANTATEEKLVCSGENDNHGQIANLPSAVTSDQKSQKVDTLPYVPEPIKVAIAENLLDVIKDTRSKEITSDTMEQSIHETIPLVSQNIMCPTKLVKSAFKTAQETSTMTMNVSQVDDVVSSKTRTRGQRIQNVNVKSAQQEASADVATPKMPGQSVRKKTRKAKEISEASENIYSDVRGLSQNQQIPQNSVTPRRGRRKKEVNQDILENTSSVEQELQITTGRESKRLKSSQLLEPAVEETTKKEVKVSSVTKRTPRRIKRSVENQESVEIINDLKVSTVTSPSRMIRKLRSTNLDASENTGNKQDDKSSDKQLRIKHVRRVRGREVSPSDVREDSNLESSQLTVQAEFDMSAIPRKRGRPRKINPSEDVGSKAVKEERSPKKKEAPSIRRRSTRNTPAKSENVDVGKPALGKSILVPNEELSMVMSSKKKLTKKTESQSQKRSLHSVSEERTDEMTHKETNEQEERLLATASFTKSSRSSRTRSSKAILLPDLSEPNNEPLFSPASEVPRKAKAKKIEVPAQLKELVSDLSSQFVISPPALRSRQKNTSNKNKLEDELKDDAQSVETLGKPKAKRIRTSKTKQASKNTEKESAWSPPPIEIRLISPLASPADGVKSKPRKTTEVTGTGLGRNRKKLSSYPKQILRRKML
UniProt Q8WWH5: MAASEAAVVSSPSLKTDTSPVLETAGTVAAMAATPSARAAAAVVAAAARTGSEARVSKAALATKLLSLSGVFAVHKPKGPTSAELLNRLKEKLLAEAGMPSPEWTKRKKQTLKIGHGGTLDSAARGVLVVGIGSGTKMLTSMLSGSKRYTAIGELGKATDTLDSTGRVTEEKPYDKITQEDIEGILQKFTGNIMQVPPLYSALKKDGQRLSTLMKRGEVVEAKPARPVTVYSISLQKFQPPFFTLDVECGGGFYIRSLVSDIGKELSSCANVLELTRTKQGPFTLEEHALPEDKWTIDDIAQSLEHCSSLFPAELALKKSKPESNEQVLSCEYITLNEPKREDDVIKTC
UniProt Q8WVB3: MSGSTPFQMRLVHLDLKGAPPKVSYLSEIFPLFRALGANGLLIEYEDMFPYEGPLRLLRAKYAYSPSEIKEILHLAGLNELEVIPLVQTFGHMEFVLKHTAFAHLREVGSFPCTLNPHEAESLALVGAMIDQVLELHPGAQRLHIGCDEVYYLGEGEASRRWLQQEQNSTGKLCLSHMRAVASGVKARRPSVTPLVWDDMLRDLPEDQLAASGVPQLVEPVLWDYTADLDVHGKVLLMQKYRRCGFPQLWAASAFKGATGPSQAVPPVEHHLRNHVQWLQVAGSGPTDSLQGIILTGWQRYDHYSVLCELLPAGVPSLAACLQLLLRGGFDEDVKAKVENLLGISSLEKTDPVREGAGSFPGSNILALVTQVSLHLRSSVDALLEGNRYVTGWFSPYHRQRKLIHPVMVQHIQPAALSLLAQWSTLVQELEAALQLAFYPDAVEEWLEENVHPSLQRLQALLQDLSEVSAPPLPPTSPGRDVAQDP
UniProt Q8N0Z3: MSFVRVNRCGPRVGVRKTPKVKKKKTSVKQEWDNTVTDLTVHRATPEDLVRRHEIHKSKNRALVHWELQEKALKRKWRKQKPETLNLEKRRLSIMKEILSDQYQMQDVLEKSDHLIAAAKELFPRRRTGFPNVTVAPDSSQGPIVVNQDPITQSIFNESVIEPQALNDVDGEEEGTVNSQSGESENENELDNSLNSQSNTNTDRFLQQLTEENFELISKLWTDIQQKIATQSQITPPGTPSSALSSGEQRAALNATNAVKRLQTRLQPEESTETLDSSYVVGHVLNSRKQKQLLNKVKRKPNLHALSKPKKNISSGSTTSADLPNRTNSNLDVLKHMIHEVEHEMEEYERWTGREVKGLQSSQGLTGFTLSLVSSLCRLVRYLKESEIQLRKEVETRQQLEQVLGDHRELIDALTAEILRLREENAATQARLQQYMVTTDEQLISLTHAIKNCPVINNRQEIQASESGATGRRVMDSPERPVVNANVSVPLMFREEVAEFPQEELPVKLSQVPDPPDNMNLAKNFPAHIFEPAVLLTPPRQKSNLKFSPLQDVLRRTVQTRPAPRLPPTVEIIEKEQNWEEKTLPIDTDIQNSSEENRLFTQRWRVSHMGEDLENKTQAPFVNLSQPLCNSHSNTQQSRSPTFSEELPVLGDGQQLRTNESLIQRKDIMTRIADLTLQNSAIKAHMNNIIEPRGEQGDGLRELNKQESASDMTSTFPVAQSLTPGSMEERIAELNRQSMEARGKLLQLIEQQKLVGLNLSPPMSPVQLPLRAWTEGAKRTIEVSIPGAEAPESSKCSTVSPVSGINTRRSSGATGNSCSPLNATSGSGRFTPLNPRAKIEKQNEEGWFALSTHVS
UniProt Q8WVJ2: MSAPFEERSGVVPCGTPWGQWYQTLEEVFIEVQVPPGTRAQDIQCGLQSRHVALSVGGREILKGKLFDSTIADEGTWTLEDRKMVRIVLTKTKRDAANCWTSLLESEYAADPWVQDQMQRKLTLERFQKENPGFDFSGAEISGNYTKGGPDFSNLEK
UniProt Q8N0X7: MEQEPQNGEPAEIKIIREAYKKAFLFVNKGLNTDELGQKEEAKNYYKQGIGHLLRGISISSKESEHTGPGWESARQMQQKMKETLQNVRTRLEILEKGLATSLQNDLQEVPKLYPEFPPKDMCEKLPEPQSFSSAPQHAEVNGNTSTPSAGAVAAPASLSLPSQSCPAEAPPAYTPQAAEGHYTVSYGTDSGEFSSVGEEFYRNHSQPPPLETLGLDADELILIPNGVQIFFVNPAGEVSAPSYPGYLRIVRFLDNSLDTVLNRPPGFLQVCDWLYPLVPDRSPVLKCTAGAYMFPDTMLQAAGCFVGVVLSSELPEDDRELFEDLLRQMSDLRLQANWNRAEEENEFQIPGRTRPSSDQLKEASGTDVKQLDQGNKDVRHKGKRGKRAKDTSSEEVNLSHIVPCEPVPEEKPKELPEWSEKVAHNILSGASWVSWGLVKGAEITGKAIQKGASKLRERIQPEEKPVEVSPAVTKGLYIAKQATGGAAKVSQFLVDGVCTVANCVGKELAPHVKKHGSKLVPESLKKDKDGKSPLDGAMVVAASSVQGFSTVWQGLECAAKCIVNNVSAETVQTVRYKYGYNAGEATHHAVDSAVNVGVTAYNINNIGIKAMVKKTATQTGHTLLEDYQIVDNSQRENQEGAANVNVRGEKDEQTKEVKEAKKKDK

This is a selection; strong and weak results do not stand in their true shares.

Compound in this test: COC(=O)C#Cc1ccccc1 [methyl 3-phenylpropiolate]
The test is described as follows: log2 ratio of iodoacetamide-alkyne labeling of the cysteine site, DMSO over compound (competition); higher = stronger covalent engagement of the cysteine by the compound, active = 1 or more. As to conditions: 500 µM; treatment time 1 h; system: HEK293T cell lysate. A digest of the protocol:
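Three replicates, each with duplicate channels, were prepared from HEK293T lysate (2 mg/mL) treated with vehicle or electrophile at 500 µM for 1 h at ambient temperature. Iodoacetamide alkyne was then applied for 1 h, and samples were clicked to sCIP-TMT reagents, pooled, trypsin-digested overnight at 37 °C, enriched on streptavidin, acid-eluted and analysed on Orbitrap Eclipse LC-MS/MS with FAIMS, with FragPipe quantification. The log2 competition ratio per cysteine is the mean control-channel divided by the mean compound-channel reporter intensity. Cysteines quantified in only one replicate were left out.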
As for UniProt Q8N1G2_C9, the “log2 ratio of iodoacetamide-alkyne labeling” value (“log2 ratio” below) is inactive: 0.562.
In the case of GPT2 C158 (UniProt Q8TD30), the “log2 ratio” value is inactive: 0.269.
The value for SYNE2 C5212 (UniProt Q8WXH0) was inactive: 0.603.
Take NEK9 C11 (UniProt Q8TD19): the “log2 ratio” value was active: 1.21.
On to SPATA5 C27 (UniProt Q8NB90), for which the “log2 ratio” value is inactive: 0.362.
On to ZC3H15 C105 (UniProt Q8WU90), for which the “log2 ratio” value is inactive: 0.129.
In the case of SUPT20H C255 (UniProt Q8NEM7), the “log2 ratio” value is inactive: 0.406.
Consider IPO4 C95 (UniProt Q8TEX9), for which the “log2 ratio” value is inactive: 0.618.
Turning to PAF1 C36 (UniProt Q8N7H5), the “log2 ratio” value is inactive: 0.367.
Regarding VPS37A C325 (UniProt Q8NEZ2), the “log2 ratio” value was inactive: 0.476.
With EHBP1 C672 (UniProt Q8NDI1), the “log2 ratio” value was inactive: 0.618.
As for DNAJB14 C77 (UniProt Q8TBM8), the “log2 ratio” value was active: 1.08.
With UniProt Q8N163_C443, the “log2 ratio” value was inactive: -0.254.
As to SMCR8 C644 (UniProt Q8TEV9), the “log2 ratio” value is inactive: 0.488.
Take AHCTF1 C693 (UniProt Q8WYP5): the “log2 ratio” value is inactive: 0.747.
Consider TRUB1 C331 (UniProt Q8WWH5), for which the “log2 ratio” value is inactive: 0.531.
Regarding UniProt Q8WVB3_C244, the “log2 ratio” value was inactive: 0.59.
The result for THOC2 C743 (UniProt Q8NI27) reads inactive: 0.442.
Take CMAS C422 (UniProt Q8NFW8): the “log2 ratio” value is inactive: 0.375.
With UniProt Q8WXA9_C494, the “log2 ratio” value was inactive: 0.148.
Consider PALLD C964 (UniProt Q8WX93), for which the “log2 ratio” value is inactive: 0.821.
With DGCR8 C256 (UniProt Q8WYQ5), the “log2 ratio” value is inactive: 0.467.
In the case of C2orf69 C54 (UniProt Q8N8R5), the “log2 ratio” value is inactive: 0.37.
For PHIP C954 (UniProt Q8WWQ0), the “log2 ratio” value was active: 1.46.
Take ATRIP C74 (UniProt Q8WXE1): the “log2 ratio” value was inactive: 0.563.
As for UniProt Q8N0Z3_C818, the “log2 ratio” value was inactive: 0.582.
As for NUDCD2 C99 (UniProt Q8WVJ2), the “log2 ratio” value is inactive: 0.231.
On to UBR7 C260 (UniProt Q8N806), for which the “log2 ratio” value was inactive: 0.301.
Consider UniProt Q8N1G2_C794, for which the “log2 ratio” value is inactive: 0.107.
Regarding PAF1 C218 (UniProt Q8N7H5), the “log2 ratio” value was inactive: 0.362.
Take UniProt Q8N0X7_C405: the “log2 ratio” value was inactive: 0.452.
For the target UniProt Q8NI60_C641, the “log2 ratio” value was inactive: 0.356.
For the target UniProt Q8N5Z5_C61, the “log2 ratio” value is inactive: -0.111.
With PDCD6IP C524 (UniProt Q8WUM4), the “log2 ratio” value is inactive: 0.154.
The result for UBA3 C28 (UniProt Q8TBC4) reads inactive: 0.199; that for LPCAT1 C330 (UniProt Q8NF37), inactive: 0.34; that for THOC2 C1064 (UniProt Q8NI27), inactive: 0.483.
